The supplement of paper PMC3334620
Whole data set: some 33,000 sequences, median “E-score (-0.5 to 0.5)” near -8e-05, cut for the highest 2% near 0.23. This is one part of the list.

molecular target: T1, Nrg2 (UniProt P38082); assay: PBM E-score (8-mer binding enrichment) (E-score (-0.5 to 0.5)); higher = stronger / more preferred TF binding; conditions: protein concentration: 100 nM; construct: GST-full length
T1 sequence: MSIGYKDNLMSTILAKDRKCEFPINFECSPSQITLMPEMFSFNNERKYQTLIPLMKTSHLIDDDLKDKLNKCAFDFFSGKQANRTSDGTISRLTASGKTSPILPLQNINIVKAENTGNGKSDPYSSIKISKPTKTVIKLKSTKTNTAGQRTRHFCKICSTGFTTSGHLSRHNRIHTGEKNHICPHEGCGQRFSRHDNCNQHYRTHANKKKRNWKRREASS
Method in brief: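 PURExpress in vitro transcription/translation supplied GST-tagged yeast transcription factors, either full-length or DNA-binding domain. Applied at about 100-200 nM to universal all-10-mer Agilent arrays double-stranded by primer extension, the bound protein was detected with fluorescent anti-GST. E-scores, modified Wilcoxon-Mann-Whitney statistics, were given by the Universal PBM Analysis Suite to ungapped eight-base words pooled with their reverse complements after masliner normalisation.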

Sequence | PBM E-score
CGATTGGC | 0.00573
ATCACCCG | 0.0954
CTCCAGCC | -0.172
CTCGTCCC | 0.0549
ACCTTTCG | 0.0316
ATTATTTG | 0.127
GGCGAGTA | 0.0611
ATATCTCA | 0.238
GAGGCTGA | -0.157
ACCCACGA | 0.143
GTGACTAA | 0.00745
GCCTAAGA | -0.0546
GAGTCCGA | 0.0485
TACGAGTA | 0.0605
TCTCCTCA | -0.16
CCGAGGTC | 0.11
AAGTAAGC | -0.0629
ATCCTTAA | 0.0411
GGAGTCTA | -0.146
TTGACCAA | 0.16
ACATGGCC | 0.0562
ACAACCTA | -0.0149
ATAAACTA | 0.00961
CGTAACAA | -0.0839
ACGAGTCG | -0.0502

Sequence | PBM E-score
CGAAGGAG | -0.0551
TACATCTA | 0.0578
ACTCGAAA | -0.0143
ACGTCCGC | 0.166
GAGAGACC | -0.0428
ACAACCGT | -0.197
GTCTCTGA | -0.0466
AATGTCAC | 0.0262
CGCTTTAA | 0.182
ATTCTGTC | 0.106
ACATAGCT | -0.141
GTTGTCAA | 0.00605
GCACATGA | -0.0184
CCCGGTCA | -0.0989
GCTATTAA | 0.154
GGAATACC | -0.0855
AGAAAACC | 0.0863
TCACTTAA | -0.00633
AAGCCCCT | -0.00314
ATATTGAC | -0.0957
GTAATACA | 0.01
ACCATTAG | -0.144
CGACGTTA | 0.201
ACTACGGC | -0.00495
GACGCGGC | -0.0707

Sequence | PBM E-score
CAAGCGGC | 0.0964
CTCTTTAC | -0.115
ACTTGACA | -0.219
CAACCGCC | 0.0219
TAGGTTAA | 0.00468
GGGACAAA | 0.11
CTCCAGAC | -0.0159
CGGTTCCC | -0.124
CTTATGTC | 0.0927
TCCGTTAA | -0.0336
AAGCGCTT | 0.303
CATGGCCC | -0.066
ATCCGGTG | -0.0138
CCGTATAC | -0.0156
CCGAGACA | 0.0946
ACTATTCA | 0.0935
CGGTGCAC | -0.0523
CTATAGCC | -0.314
CCGAAGGA | -0.162
ATTCAGAA | 0.0453
AGAGCTAC | 0.00658
CGGCACTC | -0.00346
CACGATCC | 0.0243
GCACAAGC | 0.0232
AGGGGCCC | 0.276

Sequence | PBM E-score
CTAATTAG | 0.149
CTGTCCGC | 0.0765
TGATAGCA | 0.14
AAATGATA | 0.225
ATGTAAAT | 0.0732
GACAACCC | -0.0186
GACTTTCA | 0.137
ATACACGG | 0.0292
AGCGGATG | -0.169
ATCAGTCC | -0.367
GGGTTGAA | -0.0476
CCTTAAGG | 0.141
CGCATACG | 0.0586
ACCTGCGT | 0.0464
CGCTAGGA | -0.0444
GATGGGGA | 0.00444
AACCACAT | 0.193
GAAGTAGC | -0.0332
GGCCTTTA | -0.104
GTGGCCAA | -0.00751
CAAAGCCG | -0.0677
GGGAATCA | 0.0217
ACAAAAGT | 0.0934
TAAAGGCA | 0.116
AAGGGACG | 0.207

In a second layout: entries from further up
Sequence,PBM E-score
ATACACGG,0.0292
GAAGTAGC,-0.0332

The results go on.

Sequence | PBM E-score
CGAGTAGA | 0.00096
ACTTGATG | -0.00378
ACAAAATC | 0.0858
GCACATAA | 0.148
CCCCTTCG | -0.197
CAGCGCCG | -0.09
CAGCAGAC | 0.0273
CGGAGAAA | 0.0181
AACCTGCC | -0.0409
CCAGGTAC | -0.193
ACGTATCA | 0.0634
CCGTGTCC | 0.104
AACTAATA | 0.354
CCAGGTAA | 0.0627
TAGAGTAA | 0.0383
GTTGGCAA | -0.0413
AGATCAAG | 0.0881
AAGGTTCG | -0.0484
GCCTAACC | -0.0762
TATGTGAA | -0.163
CAAAGTCC | 0.0592
AGCACGGA | -0.167
CCCTGGAA | 0.0405
CGTTGTCC | 0.107
ACGTATCC | -0.198

Sequence | PBM E-score
TGGATAAA | 0.0491
ACACACCC | 0.00959
CCCGGGAC | 0.0114
CTTGTGTC | 0.0792
TCACAAAA | 0.108
GTACACTA | 0.023
TCCATAGA | -0.202
CCTGCCGA | 0.119
CTATGGCC | -0.0228
CCCGAGGC | -0.176
ACGGGTTA | -0.195
CCAACTCG | 0.0227
ATGCCAAG | 0.0177
AGTCGCGA | 0.226
TAGTGTGA | 0.0302
AGCTATCC | -0.208
CTACACGC | -0.188
CTGTACTA | -0.00037
ACAAATGG | 0.0685
AAGTTACA | 0.196
CACATGGC | -0.169
GATTAAAA | 0.157
AGAAGACC | -0.0207
CGTAACTC | -0.154
AGGTTCAT | -0.00284

Sequence | PBM E-score
CCGCGTGC | -0.0852
CATACCAC | -0.0447
CGAACGAG | -0.124
GTCGTTGA | -0.183
CCATTAGG | -0.128
GGCGGCCC | -0.118
AACATTCA | -0.0408
CGAGAGAG | -0.101
AATACGAC | -0.1
AATCTGGA | 0.00171
AGCGGCTC | -0.179
AATACATC | 0.0729
CCGGATAC | -0.139
GGCCATAA | -0.0168
ACTTACTA | 0.052
ATACCCCA | 0.158
CTTTCTAA | -0.102
CAAGATCA | 0.07
ACCCCACC | 0.214
AAATCCCT | 0.0808
ATAATCTG | 0.055
AGGATCAA | 0.162
CGACTCAG | -0.0107
GCAAGGTA | -0.0675
GGATACAA | 0.0295

Rewritten with tabs: part of the list above.
Sequence	PBM E-score
GTGACTAA	0.00745
GCCTAAGA	-0.0546
GAGTCCGA	0.0485

Single values from the list:
ACTTACTA – PBM E-score: 0.052
CATACCAC – PBM E-score: -0.0447
AATACATC – PBM E-score: 0.0729
CGAACGAG – PBM E-score: -0.124

(list continues)

Sequence | PBM E-score
CCTATGAA | -0.0488
CAGCCCCA | 0.105
GAGTCTCA | -0.188
AGACATTA | 0.00227
TGGGGACA | -0.187
ATTGTGAA | 0.0535
CAAAGGCG | -0.0626
CGGACCGA | 0.13
CCTTAAAC | -0.0342
CACCGCGG | 0.145
ACCTCACA | -0.00605
ACCTCGAG | 0.281
CATTATTA | 0.184
CAGAACGC | 0.0404
GAACCCGA | 0.0992
GCACTACC | 0.186
AAAAGAAA | 0.11
ACAGTCGA | -0.099
AAGCAGCG | -0.0162
GCAATCCC | 0.0887
GAATGAAC | 0.125
AGGTAACA | 0.0822
CGACAAAG | 0.196
AAGTTTTC | 0.0514
ATTCCTGC | 0.108

Sequence | PBM E-score
CGCGAACC | -0.0708
CTGTTCTC | -0.0276
CAAATCTA | 0.101
CCCTCGGC | 0.00288
GAGTCTCC | -0.178
GCAAACAC | 0.0152
AAAGTCCT | -0.025
ACGCAAAG | -0.0386
ACGACTTG | -0.188
GTGTCTAA | -0.131
GTCCTATA | -0.0387
AAGGGAGT | -0.163
CATGAAGA | -0.0544
AAATGCAA | -0.0186
CGACGATA | -0.0469
AACGTGGA | 0.011
AGACGAAG | -0.0592
AGGTAATC | 0.0928
ATTCCGGG | 0.104
